The target in the assay is T1, GST-tagged ARK5 wild type (AMPK-related protein kinase 5) (human) (UniProt O60285).
T1 sequence: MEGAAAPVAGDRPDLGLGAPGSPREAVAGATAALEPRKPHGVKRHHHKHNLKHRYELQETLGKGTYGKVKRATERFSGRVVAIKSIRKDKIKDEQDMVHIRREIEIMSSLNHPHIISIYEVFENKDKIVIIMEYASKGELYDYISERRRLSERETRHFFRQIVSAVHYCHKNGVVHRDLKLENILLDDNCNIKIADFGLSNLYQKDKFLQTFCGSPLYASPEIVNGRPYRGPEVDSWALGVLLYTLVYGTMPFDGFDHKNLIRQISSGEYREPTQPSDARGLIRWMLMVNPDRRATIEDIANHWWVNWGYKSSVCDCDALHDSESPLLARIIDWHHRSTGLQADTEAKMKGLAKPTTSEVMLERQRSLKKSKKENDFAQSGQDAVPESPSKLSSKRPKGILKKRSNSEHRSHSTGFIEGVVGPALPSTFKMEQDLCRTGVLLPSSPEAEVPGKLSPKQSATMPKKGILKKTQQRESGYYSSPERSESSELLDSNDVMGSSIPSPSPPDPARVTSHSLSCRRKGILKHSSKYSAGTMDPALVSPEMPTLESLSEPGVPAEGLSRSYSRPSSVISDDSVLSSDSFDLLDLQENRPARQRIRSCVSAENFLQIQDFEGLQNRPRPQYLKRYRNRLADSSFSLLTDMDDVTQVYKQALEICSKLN
Description: co-IP; in vivo co-IP: U2OS cells cotransfected with GST-ARK5 (WT or KD) and FLAG-hnRNP A1 (WT, fragments or mutants); lysate in co-IP buffer (25 mM Tris-HCl pH 7.4, 150 mM NaCl, 0.5% Triton X-100), GSH Sepharose beads overnight at 4 °C, immunoblotting. On the technique in general: In western blotting, separated proteins are transferred to a membrane and probed.

Protein sequences, listed by entry. Tags and fused reporters are not part of them. Lines headed by an entry give the natural chain unless they say otherwise; changes in a name come on top. Chains listed by the source or under a name are the forms on record and can include a tag or linker.
FLAG-tagged hnRNP A1 fragment 2 + 3 (87–320 aa) (P09651-2, form named): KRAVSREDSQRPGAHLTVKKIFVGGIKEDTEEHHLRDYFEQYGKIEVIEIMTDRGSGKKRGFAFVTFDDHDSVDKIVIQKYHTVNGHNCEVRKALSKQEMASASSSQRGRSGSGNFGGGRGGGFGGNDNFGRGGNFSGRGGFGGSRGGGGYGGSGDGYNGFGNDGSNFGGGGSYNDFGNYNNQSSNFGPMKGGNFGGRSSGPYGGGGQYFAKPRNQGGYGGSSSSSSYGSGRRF
FLAG-tagged hnRNP A1 fragment 3 (212–320 aa) (P09651-2, form named): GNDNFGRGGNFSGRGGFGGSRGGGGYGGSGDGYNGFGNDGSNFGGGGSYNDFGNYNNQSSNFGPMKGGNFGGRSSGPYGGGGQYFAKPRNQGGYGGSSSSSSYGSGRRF

No constants are given. Whether binding was seen depends on the method and setting. In cells and extracts the contact can be indirect. Some results given as binding are weak or reduced against the parent protein; the word gives no strength. Where a sequence is shown, tags or fusion partners need not be part of it.

On to “FLAG-tagged hnRNP A1 fragment 2 + 3 (87–320 aa) (from UniProt P09651-2 87-320) (domain or fragment)”, for which the binding result was “binds”.

Regarding “FLAG-tagged hnRNP A1 fragment 3 (212–320 aa) (from UniProt P09651-2 212-320) (domain or fragment)”, the binding result is on record as “binds”.

Source of the values: publication PMC9478406.
